For 1 molecule, IC50 results are on record in patent US7495104B2, “Quinoline or quinazoline derivatives inhibiting auto-phosphorylation of fibroblast growth factor receptors” (Kirin Beer Kabushiki Kaisha, priority 2001, dated 2009).

Protein sequences, listed by entry. Tags and fused reporters are not part of them. Residues count along the entry.
UniProt P21802, 431-767 limits assumed: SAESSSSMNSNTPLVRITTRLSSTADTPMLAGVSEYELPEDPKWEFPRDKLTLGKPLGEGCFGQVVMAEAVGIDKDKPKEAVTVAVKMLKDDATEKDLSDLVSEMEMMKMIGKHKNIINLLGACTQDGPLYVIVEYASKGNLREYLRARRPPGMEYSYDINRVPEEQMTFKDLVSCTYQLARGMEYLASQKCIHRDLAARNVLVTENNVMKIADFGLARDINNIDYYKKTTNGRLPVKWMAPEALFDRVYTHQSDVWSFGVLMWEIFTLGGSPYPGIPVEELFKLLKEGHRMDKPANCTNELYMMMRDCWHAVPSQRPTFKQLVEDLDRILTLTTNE

Structures were worked out from names or drawings and are uncertain.

The target in this experiment is Bek (Homo sapiens, UniProt P21802). As to the kind of experiment: Inhibitory activity against Bek-autophosphorylation using ELISA method in OCUM-2MD3 cells. To be noted: read-out: IC50 (concentration necessary for inhibiting 50% of Bek-phosphorylation), 1 hr with compound.

Consider `COc1cc2c(Oc3ccc(NC(=O)NCCC(C)(C)C)c(Cl)c3)ccnc2cc1OCC1CCCN(C(=O)OC(C)(C)C)C1` (stereo not shown), for which the IC50 was found to be 83.3 nM.
